{
  "source": "paper PMC7819943",
  "about": "“Rice protein-binding microarrays: a tool to detect cis-acting elements near promoter regions in rice”",
  "note": "This is one part of the list.",
  "data": [
    {"molecular_target": "T1, OsSMF1 (Oryza sativa, UniProt Q6ZLB0 1-436)", "T1 sequence": "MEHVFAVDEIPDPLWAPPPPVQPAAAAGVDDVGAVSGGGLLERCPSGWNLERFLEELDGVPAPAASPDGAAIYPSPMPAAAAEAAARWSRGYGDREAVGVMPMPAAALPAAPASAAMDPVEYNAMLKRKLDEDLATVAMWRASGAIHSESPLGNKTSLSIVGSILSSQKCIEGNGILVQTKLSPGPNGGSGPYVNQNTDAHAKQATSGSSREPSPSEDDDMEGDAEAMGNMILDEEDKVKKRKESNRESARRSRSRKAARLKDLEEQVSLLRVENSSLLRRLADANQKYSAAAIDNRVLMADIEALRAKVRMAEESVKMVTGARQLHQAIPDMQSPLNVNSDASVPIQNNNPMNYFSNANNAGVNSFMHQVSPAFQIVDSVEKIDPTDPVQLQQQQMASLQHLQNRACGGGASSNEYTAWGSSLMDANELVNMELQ", "experiment": "protein-binding microarray (RPBM); PBS, 2% BSA, 51.3 ng/ul salmon testes DNA, 50 uM zinc acetate, 200 nM TF, 25 C, 1 h; high values mean tight binding", "settings": "protein: recombinant; tags: N-terminal polyhistidine and DsRed monomer fusion (pET32a); chain copies: 2; label: CyDye5-dUTP incorporated in the synthesized complementary strand; 3' TTTTT single-stranded linker to array surface; dsDNA, one strand shown", "method_in_brief": "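The binding signal is fluorescence intensity per feature, in arbitrary units, read on an Axon 4000B scanner. Polyhistidine- and DsRed-tagged transcription factors (N-terminal fusions) from E. coli BL21-CodonPlus were purified on Ni–NTA and applied at 200 nM for 1 h at 25 °C to a double-stranded, BSA-blocked custom Agilent array in buffer with 50 µM zinc acetate.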", "values": [
      {"sequence": "AATGGGATAGGCGCTTCCCGTGGGCGATGACGCCTTTCGCCGGAGTCACCTAGTGCAG", "binding signal": "3580 fluorescence intensity (a.u.)"},
      {"sequence": "ACGGCATCGATCGATCGCGGGCGACGTGGCTGAGTGGCGGCGGAGTCACCTAGTGCAG", "binding signal": "6420 fluorescence intensity (a.u.)"},
      {"sequence": "CGGTTGCTGCTGAAGCTTACCAGACTTGTCCCAAGTCTGACGGAGTCACCTAGTGCAG", "binding signal": "3960 fluorescence intensity (a.u.)"},
      {"sequence": "TCCTTGCTCGCGAATCCACTCGCGCGTGCGTGGGCCCCACCGGAGTCACCTAGTGCAG", "binding signal": "3310 fluorescence intensity (a.u.)"},
      {"sequence": "GGAGCTATTAAGAAGCTTACGTGGAGGAGAGATGTAATAACGGAGTCACCTAGTGCAG", "binding signal": "3400 fluorescence intensity (a.u.)"},
      {"sequence": "TGCGCGCCTTGGCCTCTCTTCTGTCACCGCGATGTCTCGCCGGAGTCACCTAGTGCAG", "binding signal": "3660 fluorescence intensity (a.u.)"},
      {"sequence": "CGTGGTCTCTGAACCCGCGCGCGCGTGCCACCCGCGCATGCGGAGTCACCTAGTGCAG", "binding signal": "3180 fluorescence intensity (a.u.)"},
      {"sequence": "AGTTACAACTACTCGATCAGCATCGCCATTGCTGCATCACCGGAGTCACCTAGTGCAG", "binding signal": "4060 fluorescence intensity (a.u.)"},
      {"sequence": "ACTCCTCGGATAGGCGATGGCGGCCGCGGTCACCGCGCCACGGAGTCACCTAGTGCAG", "binding signal": "3370 fluorescence intensity (a.u.)"},
      {"sequence": "ACGGAGGGAGGAGGGAGTATTAATATTTAGGGCATGTTTACGGAGTCACCTAGTGCAG", "binding signal": "30800 fluorescence intensity (a.u.)"},
      {"sequence": "AAATCGTCGAGGATTTCTAGCCCCAGCTGGGGCCGTGACGCGGAGTCACCTAGTGCAG", "binding signal": "4330 fluorescence intensity (a.u.)"},
      {"sequence": "CGCCTACACCTTTGCCACGCAGCCCAAAACGAGTCCACCTCGGAGTCACCTAGTGCAG", "binding signal": "7650 fluorescence intensity (a.u.)"},
      {"sequence": "GTACTGCACGGTAGTATACACGTAAGCCCCAAGTAATTACCGGAGTCACCTAGTGCAG", "binding signal": "9470 fluorescence intensity (a.u.)"},
      {"sequence": "ACCACCACGGACATCGTCTTACCACCAAGCTGACTCCCGGCGGAGTCACCTAGTGCAG", "binding signal": "3890 fluorescence intensity (a.u.)"},
      {"sequence": "AGAGGTGTGGGAATTCCGTGGCAACTAATCTCATGGCCCCCGGAGTCACCTAGTGCAG", "binding signal": "3360 fluorescence intensity (a.u.)"},
      {"sequence": "GGTGGTGTTGACAGCCCAAGGCCCAAGTGTCACACGCCTTCGGAGTCACCTAGTGCAG", "binding signal": "3990 fluorescence intensity (a.u.)"},
      {"sequence": "TTGCTGTGTTGGCTAGTGATTCTTCTTCTTCTTACCCAAGCGGAGTCACCTAGTGCAG", "binding signal": "4100 fluorescence intensity (a.u.)"},
      {"sequence": "AAGAGGAGAGGGAAGAAGACAGGAGAAAGAAGGAAGAAAACGGAGTCACCTAGTGCAG", "binding signal": "29300 fluorescence intensity (a.u.)"},
      {"sequence": "ATATATTCTATGTGGTCTGCCCACACGCAAGCATGAGCTCCGGAGTCACCTAGTGCAG", "binding signal": "3740 fluorescence intensity (a.u.)"},
      {"sequence": "AGCTGCATGAATCAGCAAGAACGCCAGGGCCGCTGTGCCGCGGAGTCACCTAGTGCAG", "binding signal": "3780 fluorescence intensity (a.u.)"},
      {"sequence": "TGTTTCCCCATATATACTTCCACTTATCAGCAGTGTGATCCGGAGTCACCTAGTGCAG", "binding signal": "3300 fluorescence intensity (a.u.)"},
      {"sequence": "ATTATAGCGACCTTATCCTCTCCACCGTCCACGCGCGAGCCGGAGTCACCTAGTGCAG", "binding signal": "3330 fluorescence intensity (a.u.)"},
      {"sequence": "TGGCTCTCGTACGTAGGTGATGTGTATATATGTATATGTTCGGAGTCACCTAGTGCAG", "binding signal": "5190 fluorescence intensity (a.u.)"},
      {"sequence": "GCCACCAAGTAAATCGTGACTCATCTTACCAATCAACGACCGGAGTCACCTAGTGCAG", "binding signal": "15800 fluorescence intensity (a.u.)"},
      {"sequence": "GCCTTCGCTCTTCGTCGGGTCAGCTCCTGCCTTCCAAAGTCGGAGTCACCTAGTGCAG", "binding signal": "3360 fluorescence intensity (a.u.)"},
      {"sequence": "TCCAGTGGCGGTTACGTAAACGCCTGGCCTCCTGTTATTCCGGAGTCACCTAGTGCAG", "binding signal": "3380 fluorescence intensity (a.u.)"},
      {"sequence": "ACCCGTCACCAACCTAGCTCGCGAGACAGCTCATCATTTGCGGAGTCACCTAGTGCAG", "binding signal": "5230 fluorescence intensity (a.u.)"},
      {"sequence": "GCCAGACCGCCCACATACCTGTGGTCTGACCGGCCCTGTGCGGAGTCACCTAGTGCAG", "binding signal": "3170 fluorescence intensity (a.u.)"},
      {"sequence": "AGGGAGAAGAGATGGGCGACTGACATGACATATGACATATCGGAGTCACCTAGTGCAG", "binding signal": "3700 fluorescence intensity (a.u.)"},
      {"sequence": "GCTTAAGTTTTAACCATTCCTGACACGTTTAACAGCGAATCGGAGTCACCTAGTGCAG", "binding signal": "4520 fluorescence intensity (a.u.)"},
      {"sequence": "CATGCTAAGTAACAAGGTGTGTATCAGTTATTACTCAGCGCGGAGTCACCTAGTGCAG", "binding signal": "3530 fluorescence intensity (a.u.)"},
      {"sequence": "TAATTGCTACGTCAGCACCACGTGGGATGAAGACCTAGTCCGGAGTCACCTAGTGCAG", "binding signal": "33500 fluorescence intensity (a.u.)"},
      {"sequence": "GAGTAGTACAGATTGCTCAGACGGGTCGTCTCACCACCATCGGAGTCACCTAGTGCAG", "binding signal": "4240 fluorescence intensity (a.u.)"},
      {"sequence": "CAAATCTCTAGCTTCCCCAATGACTAATGGAACTCATACACGGAGTCACCTAGTGCAG", "binding signal": "3290 fluorescence intensity (a.u.)"},
      {"sequence": "ACTCTAATTTCCTAACGTTTCTTGACGTAGCCATAAGGTTCGGAGTCACCTAGTGCAG", "binding signal": "4270 fluorescence intensity (a.u.)"},
      {"sequence": "ATCACATCAAAACTTTTCTACACATATAAACTTCTAACTTCGGAGTCACCTAGTGCAG", "binding signal": "27400 fluorescence intensity (a.u.)"},
      {"sequence": "AACTGAAAGATCATTGTACACACCAGCATTACCTGTAAACCGGAGTCACCTAGTGCAG", "binding signal": "4240 fluorescence intensity (a.u.)"},
      {"sequence": "ACGGTGGTGGGTGGGCCACCATATGGATTGGTGGAGGACGCGGAGTCACCTAGTGCAG", "binding signal": "3310 fluorescence intensity (a.u.)"},
      {"sequence": "CACACTGATACGCAACGCACGTAGCTACTGTACTGTAGGACGGAGTCACCTAGTGCAG", "binding signal": "3290 fluorescence intensity (a.u.)"},
      {"sequence": "TAATCATACGCTAATGGCTCACATCGTTTTGCATATCTTTCGGAGTCACCTAGTGCAG", "binding signal": "3300 fluorescence intensity (a.u.)"},
      {"sequence": "TTCTCTTGCTCCCTAACCCAGCAACCAAACAAAGCGGATTCGGAGTCACCTAGTGCAG", "binding signal": "3230 fluorescence intensity (a.u.)"},
      {"sequence": "ACCCATAGATGAATATCCATTTATCTTTCCCTTTTCGTACCGGAGTCACCTAGTGCAG", "binding signal": "3140 fluorescence intensity (a.u.)"}
    ]}
  ]
}
